At least one structure is not confirmed: it was looked up by name or label, or the drawing left a doubt.
System: GKLF mRNA
Assay: GKLF expression in transfected NIKS cells by RT-PCR (Example 4)
Assay type: cell-based, human
Conditions: NIKS cells transfected with GKLF in pTRE2 vector; doxycycline for 16 hours

**Q.** How did the “PCR product corresponding to spliced GKLF mRNA after doxycycline addition” value turn out when `C[C@H]1c2cccc(O)c2C(=O)C2=C(O)[C@]3(O)C(=O)C(C(N)=O)=C(O)[C@@H](N(C)C)[C@@H]3[C@@H](O)[C@@H]21` [doxycycline] was run?
**A.** more product was seen

— patent publication US7955790B2, “Skin substitutes with improved barrier function” (Stratatech Corporation, priority 2001, dated 2011)
